In the experiment the test system is P388 leukemia ip, CD2F1 mice, survival T/C. Nature of the experiment: NCI In Vivo Anticancer Drug Screen. Data for tumor model P388 Leukemia (intraperitoneal) in CD2F1 (CDF1) mice. The following applies: T/C endpoint: median survival time, higher T/C = longer survival.
Setting [1] is: dose: 200.0 mg/kg/injection, schedule: Q01DX005 (ip), vehicle: saline with Tween-80.
The mark [2] stands for this setting: dose: 50.0 mg/kg/injection, schedule: Q01DX005 (ip), vehicle: saline with Tween-80.
[3] abbreviates: dose: 100.0 mg/kg/injection, schedule: Q01DX005 (ip), vehicle: saline with Tween-80.
The mark [4] stands for this setting: dose: 25.0 mg/kg/injection, schedule: Q01DX009 (ip), vehicle: saline with Tween-80.
Setting [5] is: dose: 50.0 mg/kg/injection, schedule: Q01DX009 (ip), vehicle: saline with Tween-80.
[6] abbreviates: dose: 100.0 mg/kg/injection, schedule: Q01DX009 (ip), vehicle: saline with Tween-80.
Setting [7] is: dose: 200.0 mg/kg/injection, schedule: Q01DX009 (ip), vehicle: saline with Tween-80.
The mark [8] stands for this setting: dose: 400.0 mg/kg/injection, schedule: Q04DX003 (ip), vehicle: Klucel (hydroxypropylcellulose) (HPC).
[9] abbreviates: dose: 50.0 mg/kg/injection, schedule: Q01DX001 (ip), vehicle: saline with Tween-80.

The record followed here is PubChem BioAssay AID330 (DTP/NCI, 2004).

The list shows only some results of the screen, not a fair sample: it gathers tests that were run many times, whatever their T/C, doses with no T/C, and many T/C values between a quarter and a half above the control. Further doses and runs are listed elsewhere. T/C: endpoint of the treated group in % of that of the vehicle group. Some doses have a count of surviving animals in place of a T/C: the source holds a T/C of zero for them, seemingly a mark for toxic or unscored doses. Some doses without a T/C left all or most animals alive at the check, yet need not have been tolerated: survival well below the control is almost never listed, so the zero probably covers shortened survival too. Counts of survivors are from the toxicity check (mostly the fifth day) where no day follows; animals may have died later. Schedules are NCI's codes, read here as Q, the interval in days (D) or hours (H), X, the number of doses. Some entries hold several experiments; their values stand side by side, smallest first. Where survival is the endpoint, the PubChem record calls one and a half times the control and up active, and a quarter to a half above the control has no call in these data; cut-offs in other NCI protocols can differ.

Regarding `CC/C(=C(/CC)c1ccc(OCC(=O)N/N=C2\CCC3C4CCc5cc(O)ccc5C4CCC23C)cc1)c1ccc(OCC(=O)N/N=C2/CCC3C4CCc5cc(O)ccc5C4CCC23C)cc1` (stereo not given), under “dose: 100.0 mg/kg/injection, schedule: Q01DX001 (ip), vehicle: Klucel (hydroxypropylcellulose) (HPC)”, the survivor count was 5 of 6.

With `CCN(CC)CCNc1c(OC)c(OC)cc2nccnc12`, the survivor count (dose: 200.0 mg/kg/injection, schedule: Q01DX005 (ip), vehicle: suspension in saline) is recorded as 3 of 5.

Take `CC1=C(OS(C)(=O)=O)CCC1=O`: under setting [1], the survivor count is given as 0 of 6.

With `COc1cc(NC(C)CCCNC(C)C)c2ncccc2c1OC` (stereo not given), the survivor count runs as follows: (dose: 50.0 mg/kg/injection, schedule: Q01DX005 (ip), vehicle: saline) 0 of 5; (dose: 100.0 mg/kg/injection, schedule: Q01DX005 (ip), vehicle: saline) 0 of 5; (dose: 200.0 mg/kg/injection, schedule: Q01DX005 (ip), vehicle: saline) 0 of 5.

Take `Nn1cnc2c(nnn2Cc2ccccc2)c1=O`: the survivor count (dose: 400.0 mg/kg/injection, schedule: Q04DX002 (ip), vehicle: saline with Tween-80) was 2 of 6.

With `CNC(=O)OCc1nc(-c2ccccc2)sc1COC(=O)NC`, the survivor count by setting is: (dose: 50.0 mg/kg/injection, schedule: Q01DX005 (ip), vehicle: distilled water + Tween-80) 5 of 5; (dose: 100.0 mg/kg/injection, schedule: Q01DX005 (ip), vehicle: distilled water + Tween-80) 4 of 5; (dose: 200.0 mg/kg/injection, schedule: Q01DX005 (ip), vehicle: distilled water + Tween-80) 2 of 5.

On to `CCOC(=O)C(=CNc1cccc2c(O)cccc12)C(=O)OCC`, for which the survivor count reads like this: under setting [2], 5 of 5; under setting [3], 5 of 5.

As to `CC(C)(C)Oc1ccc(CC(NC(=O)OCC2c3ccccc3-c3ccccc32)C(=O)O)cc1` (stereo not given), under “dose: 100.0 mg/kg/injection, schedule: Q01DX005 (ip), vehicle: Klucel (hydroxypropylcellulose) (HPC)”, the T/C is 129 % of control.

As for `O=C(Nc1cccc(Cl)c1)c1cc(N=Nc2ccc([N+](=O)[O-])cc2Cl)ccc1O`, the survivor count was 5 of 6 under setting [4]; 5 of 6 under setting [5]; 0 of 6 under setting [6]; 0 of 6 under setting [7]; 0 of 6 under setting [8].

For the compound `O=C(O)CCC(=O)OC(C1CO1)C(OC(=O)CCC(=O)O)C1CO1` (stereo not given), the T/C by setting is: (dose: 10.0 mg/kg/injection, schedule: Q01DX009 (ip), vehicle: saline) 126 % of control; (dose: 40.0 mg/kg/injection, schedule: Q01DX009 (ip), vehicle: sodium bicarbonate) 142 % of control; (dose: 160.0 mg/kg/injection, schedule: Q01DX009 (ip), vehicle: saline) 126 % of control.

With `O=NN(CCCl)C(=O)N1CCCOC1=O`, the survivor count by setting is: (dose: 25.0 mg/kg/injection, schedule: Q01DX001 (ip), vehicle: saline with Tween-80) 5 of 6; (dose: 25.0 mg/kg/injection, schedule: Q01DX005 (ip), vehicle: saline with Tween-80) 6 of 6; under setting [9], 0 of 6; under setting [2], 1 of 6; (dose: 100.0 mg/kg/injection, schedule: Q01DX001 (ip), vehicle: saline with Tween-80) 0 of 6 and 1 of 5; under setting [3], 0 of 6. For the same compound, the survivor count reads like this: (dose: 200.0 mg/kg/injection, schedule: Q01DX001 (ip), vehicle: saline with Tween-80) 0 of 5; (dose: 400.0 mg/kg/injection, schedule: Q01DX001 (ip), vehicle: saline with Tween-80) 0 of 5. The T/C under setting [9] was 135 % of control.

On to `O=C(O)/C(Cl)=C(\Cl)C(=O)Nc1ccccc1C(F)(F)F`, for which, under setting [1], the survivor count is 0 of 6.

Consider `CN(C)c1ccc(-c2cccc[n+]2C)cc1`, for which the survivor count (dose: 12.0 mg/kg/injection, schedule: Q01DX009 (ip), vehicle: saline) is on record as 3 of 6.

As for `CCN(CC)CCNC(=S)N/N=C(C)\C(C)=N/NC(=S)NCCN(CC)CC`, the survivor count by setting is: under setting [5], 1 of 6; under setting [6], 0 of 6; under setting [7], 0 of 6.

For `CC(Br)CN(CC(C)Br)c1ccc(-c2ccccc2)cc1` (stereo not given), the survivor count is, setting by setting: (dose: 100.0 mg/kg/injection, schedule: Q01DX009 (ip), vehicle: Klucel (hydroxypropylcellulose) (HPC)) 6 of 6; (dose: 200.0 mg/kg/injection, schedule: Q01DX009 (ip), vehicle: Klucel (hydroxypropylcellulose) (HPC)) 1 of 6.

Consider `Cn1c2ccccc2c2ccc3c(c21)C(=O)C=CC3=O`, for which the T/C (dose: 50.0 mg/kg/injection, schedule: Q01DX009 (ip), vehicle: distilled water + Tween-80) was 130 % of control. Further, the survivor count by setting is: (dose: 100.0 mg/kg/injection, schedule: Q01DX009 (ip), vehicle: distilled water + Tween-80) 4 of 5; (dose: 200.0 mg/kg/injection, schedule: Q01DX009 (ip), vehicle: distilled water + Tween-80) 2 of 5.

As for `CCC(O)(CC(=O)O)c1ccccc1` (stereo not given), the survivor count (dose: 400.0 mg/kg/injection, schedule: Q01DX009 (ip), vehicle: saline with Tween-80) is reported as 0 of 6.

Turning to `Cn1c2ccccc2c2nnc(-n3nc(-c4ccc(Br)cc4)cc3N)nc21`, the survivor count is, setting by setting: under setting [2], 6 of 6; under setting [3], 6 of 6.

With `O=S(=O)(OCCCl)C(F)(F)F`, the survivor count is, setting by setting: (dose: 6.25 mg/kg/injection, schedule: Q01DX009 (ip), vehicle: saline with Tween-80) 6 of 6; (dose: 12.5 mg/kg/injection, schedule: Q01DX009 (ip), vehicle: saline with Tween-80) 1 of 6; under setting [4], 0 of 6; under setting [5], 0 of 6; under setting [6], 0 of 6; under setting [7], 0 of 6.

As for `N#CN=CN1CC2CCC(CC2)C1`, the survivor count is 0 of 6 under setting [5], 0 of 6 under setting [6] and 0 of 6 under setting [7].

Turning to `CC(Cl)C(=O)N(C)c1ccccc1` (stereo not given), under setting [8], the survivor count was 1 of 6.

As to `NCCC[Se]CC(N)C(=O)O` (stereo not given), the survivor count by setting is: (dose: 200.0 mg/kg/injection, schedule: Q04DX003 (ip), vehicle: saline) 4 of 6; (dose: 400.0 mg/kg/injection, schedule: Q04DX003 (ip), vehicle: saline) 6 of 6.

For the compound `CCC[P+](CCC)(CCC)CCCCCCCCCC[P+](CCC)(CCC)CCC`, the survivor count by setting is: (dose: 3.12 mg/kg/injection, schedule: Q01DX009 (ip), vehicle: saline) 0 of 6; (dose: 6.25 mg/kg/injection, schedule: Q01DX009 (ip), vehicle: saline) 0 of 6; (dose: 12.5 mg/kg/injection, schedule: Q01DX009 (ip), vehicle: saline) 0 of 6; (dose: 50.0 mg/kg/injection, schedule: Q01DX009 (ip), vehicle: saline) 0 of 6; (dose: 100.0 mg/kg/injection, schedule: Q01DX009 (ip), vehicle: saline) 0 of 6; (dose: 200.0 mg/kg/injection, schedule: Q01DX009 (ip), vehicle: saline) 0 of 6.

In the case of `CC(C)(C)/C(=N\NC(=O)CCl)c1ccccc1`, the survivor count is, setting by setting: under setting [5], 5 of 6; under setting [6], 3 of 6; under setting [7], 0 of 6.

As to `CCN(CC)CCCC(C)NCC(O)c1cc(-c2ccc(Cl)cc2)nc2ccccc12` (stereo not given), under setting [1], the survivor count is reported as 0 of 5.
